Values quoted from earlier work, collected in PMC6593967, “The development and prevalidation of an in vitro mutagenicity assay based on MutaMouse primary hepatocytes, Part II: Assay performance for the identification of mutagenic chemicals” (Environmental and Molecular Mutagenesis, 2019).

Columns and labels:
Hprt gene = details: cited from earlier work
HepG2 cells = details: cited from earlier work

O=[N+]([O-])c1ccc2ccc3ccc([N+](=O)[O-])c4ccc1c2c34 [1,8‐DNP, 1,8‐dinitropyrene]
Response in HPRT test (Hprt gene): Pos/Neg ^c (±S9) | Response in HPRT assay (HepG2 cells): negative response
